Reference: paper PMC4471001
Results are given in words; binding and its absence hold for the method and conditions named. Some results given as binding are weak or reduced against the parent protein; the word gives no strength.

Amino acid sequences for entries named in this document (tags omitted).
UniProt P52294: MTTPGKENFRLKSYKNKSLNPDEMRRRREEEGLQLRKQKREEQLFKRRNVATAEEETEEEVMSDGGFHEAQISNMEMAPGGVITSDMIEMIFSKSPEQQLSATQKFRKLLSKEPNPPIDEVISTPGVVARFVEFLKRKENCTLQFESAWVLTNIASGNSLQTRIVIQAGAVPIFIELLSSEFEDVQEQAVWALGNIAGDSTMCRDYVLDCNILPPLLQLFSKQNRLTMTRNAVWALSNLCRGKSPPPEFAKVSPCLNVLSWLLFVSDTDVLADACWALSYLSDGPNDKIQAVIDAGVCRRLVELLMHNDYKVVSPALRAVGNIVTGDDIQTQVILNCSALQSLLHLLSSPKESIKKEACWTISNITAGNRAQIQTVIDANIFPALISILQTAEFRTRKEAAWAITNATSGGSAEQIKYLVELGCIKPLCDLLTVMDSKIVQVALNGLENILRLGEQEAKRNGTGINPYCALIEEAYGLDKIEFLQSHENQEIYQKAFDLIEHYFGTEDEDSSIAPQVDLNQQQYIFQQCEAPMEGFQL

Columns and labels:
[1] = target: T1, TAMRA labelled peptide …; test: fluorescence polarisation; competition, dark (value read after 5 minutes in absence of light); 25 nM TAMRA peptide …, 50 mM Tris pH 7.5, 100 mM NaCl, 1 mM DTT, 25°C; Kd from IC50; both purified
T1 sequence (peptide, amine labeled with 5- and 6-Carboxytetramethylrhodamine (TAMRA)): GDMAAKRVKLD

[2] = target: T1, TAMRA labelled peptide …; test: fluorescence polarisation; competition, under blue light (455 nm, 6 mW/cm^2; value read after 2 minutes of illumination); 25 nM TAMRA peptide …, 50 mM Tris pH 7.5, 100 mM NaCl, 1 mM DTT, 25°C; Kd from IC50; both purified
[3] = target: T1, TAMRA labelled peptide …; test: fluorescence polarisation; direct: importin α titrated into 25 nM TAMRA peptide, 50 mM Tris pH 7.5, 100 mM NaCl, 1 mM DTT, 25°C; both purified
[4] = target: human importin α5 (human) (UniProt P52294); test: fluorescence polarisation; competition, dark (value read after 5 minutes in absence of light); 25 nM TAMRA peptide …, 50 mM Tris pH 7.5, 100 mM NaCl, 1 mM DTT, 25°C; Kd from IC50; both purified
[5] = target: human importin α7 (human) (UniProt O60684); test: as above
[6] = target: human importin α5 (human) (UniProt P52294); test: fluorescence polarisation; competition, under blue light (455 nm, 6 mW/cm^2; value read after 2 minutes of illumination); 25 nM TAMRA peptide …, 50 mM Tris pH 7.5, 100 mM NaCl, 1 mM DTT, 25°C; Kd from IC50; both purified
[7] = target: human importin α7 (human) (UniProt O60684); test: as above

binding [1] | binding [2] | binding [3] | binding [4] | binding [5] | binding [6] | binding [7] | Substance
binds | binds | binds |  |  |  |  | human importin α5 (from UniProt P52294 1-538)
binds | binds | binds |  |  |  |  | human importin α7 (from UniProt O60684 1-536)
 |  |  | no binding | no binding | no binding | no binding | wild type AsLOV2 (from UniProt O49003 404-546) (domain or fragment)
